The source of these data is publication PMC3546006.

Sequences of proteins named here, by UniProt entry; tags and fusion partners are left off.
UniProt Q02111: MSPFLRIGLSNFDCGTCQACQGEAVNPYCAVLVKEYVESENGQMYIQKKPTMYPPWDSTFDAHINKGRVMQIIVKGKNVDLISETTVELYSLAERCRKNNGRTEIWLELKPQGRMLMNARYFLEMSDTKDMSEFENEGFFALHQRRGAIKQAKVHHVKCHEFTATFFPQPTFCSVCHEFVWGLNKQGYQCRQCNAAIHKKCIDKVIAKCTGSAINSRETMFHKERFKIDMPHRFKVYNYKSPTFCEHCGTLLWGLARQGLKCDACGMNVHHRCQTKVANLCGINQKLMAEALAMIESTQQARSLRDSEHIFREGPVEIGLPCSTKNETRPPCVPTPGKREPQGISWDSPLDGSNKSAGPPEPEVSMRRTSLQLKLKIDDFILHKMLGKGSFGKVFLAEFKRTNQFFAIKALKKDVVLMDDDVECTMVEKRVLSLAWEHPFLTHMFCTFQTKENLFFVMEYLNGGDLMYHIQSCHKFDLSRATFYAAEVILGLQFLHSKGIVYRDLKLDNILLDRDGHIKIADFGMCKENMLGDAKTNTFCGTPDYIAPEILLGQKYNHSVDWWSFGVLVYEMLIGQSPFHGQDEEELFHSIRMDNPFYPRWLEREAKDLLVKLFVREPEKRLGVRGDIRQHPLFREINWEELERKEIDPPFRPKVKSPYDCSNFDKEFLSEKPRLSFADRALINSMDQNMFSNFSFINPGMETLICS

For the assay, the target named is T1, CYLD (endogenous, primary mouse CD3+ T cells) (mouse (endogenous in primary CD3+ T cells)) (UniProt Q80TQ2).
T1 sequence: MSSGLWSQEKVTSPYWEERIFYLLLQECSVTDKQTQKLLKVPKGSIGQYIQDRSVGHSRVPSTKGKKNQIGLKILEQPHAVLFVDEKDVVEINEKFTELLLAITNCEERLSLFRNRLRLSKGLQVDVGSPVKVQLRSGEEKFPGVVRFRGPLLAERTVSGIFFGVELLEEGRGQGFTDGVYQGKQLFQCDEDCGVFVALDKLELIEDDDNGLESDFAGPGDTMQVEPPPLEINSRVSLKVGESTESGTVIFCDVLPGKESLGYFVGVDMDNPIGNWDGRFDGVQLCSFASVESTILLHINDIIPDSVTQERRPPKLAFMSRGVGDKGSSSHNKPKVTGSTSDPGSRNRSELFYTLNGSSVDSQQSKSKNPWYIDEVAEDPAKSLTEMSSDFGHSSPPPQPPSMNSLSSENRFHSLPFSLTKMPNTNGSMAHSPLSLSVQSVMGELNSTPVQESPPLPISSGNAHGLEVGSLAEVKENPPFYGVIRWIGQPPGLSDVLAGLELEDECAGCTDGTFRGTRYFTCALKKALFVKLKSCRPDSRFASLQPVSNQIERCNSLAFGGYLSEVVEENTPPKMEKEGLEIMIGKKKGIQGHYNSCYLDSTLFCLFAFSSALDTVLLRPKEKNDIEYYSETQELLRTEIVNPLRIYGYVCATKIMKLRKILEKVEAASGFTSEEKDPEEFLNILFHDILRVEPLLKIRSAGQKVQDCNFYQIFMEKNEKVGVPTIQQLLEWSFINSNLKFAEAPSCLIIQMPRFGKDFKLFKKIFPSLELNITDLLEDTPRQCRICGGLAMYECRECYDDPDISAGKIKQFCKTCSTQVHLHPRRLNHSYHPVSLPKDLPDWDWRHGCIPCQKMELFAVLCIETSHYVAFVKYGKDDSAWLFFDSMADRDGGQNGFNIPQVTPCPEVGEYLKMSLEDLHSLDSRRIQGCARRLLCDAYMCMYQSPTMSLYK
Put plainly: co-IP; endogenous proteins from lysates of unstimulated and CD3/CD28-activated primary mouse CD3+ T cells; 1% NP-40, 150 mM NaCl, 50 mM Tris pH 7.4, 5 mM EDTA; 4°C overnight, protein G Sepharose.

Results are given in words; binding and its absence hold for the method and conditions named. Binding seen in cells or lysates may run through a third protein. Some results given as binding are weak or reduced against the parent protein; the word gives no strength.

On to “PKCθ (endogenous, primary mouse CD3+ T cells) (from UniProt Q02111 1-707)”, for which the binding result is reported as “binds”.
